# ± gives the standard deviation of the averaged measurements. The effect of the compound repeats well; differences between the knockouts mostly do not.
# System: BT-20
# Experiment: relative cell number vs DMSO control (72 h) (% of DMSO); higher = less growth inhibition (more cells)
# Experimental: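 QMAP-Seq: a pool of 5 breast cancer cell lines (ZR-75-1, SKBR3, HCC-38, MDA-MB-231, BT-20), each carrying 12 doxycycline-inducible Cas9 sgRNA perturbations (11 knockouts plus non-targeting sgNT), was treated with compounds for 72 h at four 10-fold doses (10 nM-10 uM or 1 nM-1 uM range). Barcodes were amplified and sequenced, and cell number was interpolated from 293T spike-in standard curves. The result is expressed as % of the median of DMSO wells. Two biological replicates.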
# [1] = sgRNA knockout: sgATF3, 1000 nM
# [2] = sgRNA knockout: sgATF3, 10000 nM
# [3] = sgRNA knockout: sgATF4, 1000 nM
# [4] = sgRNA knockout: sgATF4, 10000 nM
# [5] = sgRNA knockout: sgATF6, 1000 nM
# [6] = sgRNA knockout: sgATF6, 10000 nM
# [7] = sgRNA knockout: sgATG7, 1000 nM
# [8] = sgRNA knockout: sgATG7, 10000 nM
# [9] = sgRNA knockout: sgERN1, 1000 nM
# [10] = sgRNA knockout: sgERN1, 10000 nM
# [11] = sgRNA knockout: sgHSF1, 1000 nM
# [12] = sgRNA knockout: sgHSF1, 10000 nM
# [13] = sgRNA knockout: sgHSF2, 1000 nM
# [14] = sgRNA knockout: sgHSF2, 10000 nM
# [15] = sgRNA knockout: sgKEAP1, 100 nM
# [16] = sgRNA knockout: sgKEAP1, 1000 nM
# [17] = sgRNA knockout: sgKEAP1, 10000 nM
# [18] = sgRNA knockout: sgNFE2L2, 10 nM
# [19] = sgRNA knockout: sgNFE2L2, 100 nM
# [20] = sgRNA knockout: sgNFE2L2, 1000 nM
# [21] = sgRNA knockout: sgNFE2L2, 10000 nM
# [22] = sgRNA knockout: sgSLC35F2, 10 nM
# [23] = sgRNA knockout: sgSLC35F2, 100 nM
# [24] = sgRNA knockout: sgSLC35F2, 1000 nM
# [25] = sgRNA knockout: sgSLC35F2, 10000 nM
# [26] = sgRNA knockout: sgXBP1, 1000 nM
# [27] = sgRNA knockout: sgXBP1, 10000 nM
smiles,measurement,setting,value
C[C@@H](Oc1cc(-c2cnn(C3CCNCC3)c2)cnc1N)c1c(Cl)ccc(F)c1Cl [Crizotinib],relative cell number,"sgRNA knockout: sgATF3, 10 nM",91.7 ± 19
same,relative cell number,"sgRNA knockout: sgATF3, 100 nM",89.2 ± 5.9
same,relative cell number,[1],80.5 ± 20
same,relative cell number,[2],35.9 ± 6.8
same,relative cell number,"sgRNA knockout: sgATF4, 10 nM",112 ± 11
same,relative cell number,"sgRNA knockout: sgATF4, 100 nM",93.2 ± 1.6
same,relative cell number,[3],75.4 ± 11
same,relative cell number,[4],37.7 ± 2.6
same,relative cell number,"sgRNA knockout: sgATF6, 10 nM",92.5 ± 14
same,relative cell number,"sgRNA knockout: sgATF6, 100 nM",98.7 ± 9.2
same,relative cell number,[5],87.8 ± 28
same,relative cell number,[6],43.9 ± 8.2
same,relative cell number,"sgRNA knockout: sgATG7, 10 nM",102 ± 30
same,relative cell number,"sgRNA knockout: sgATG7, 100 nM",93.272 ± 0.045
same,relative cell number,[7],92.1 ± 0.98
same,relative cell number,[8],50.7 ± 7.7
same,relative cell number,"sgRNA knockout: sgERN1, 10 nM",92.5 ± 28
same,relative cell number,"sgRNA knockout: sgERN1, 100 nM",87.4 ± 9.5
same,relative cell number,[9],94.3 ± 14
same,relative cell number,[10],43.3 ± 4.6
same,relative cell number,"sgRNA knockout: sgHSF1, 10 nM",101 ± 9.9
same,relative cell number,"sgRNA knockout: sgHSF1, 100 nM",88.9 ± 21
same,relative cell number,[11],81.2 ± 18
same,relative cell number,[12],34.3 ± 8.8
same,relative cell number,"sgRNA knockout: sgHSF2, 10 nM",69.5 ± 4
same,relative cell number,"sgRNA knockout: sgHSF2, 100 nM",109 ± 16
same,relative cell number,[13],72.3 ± 3.8
same,relative cell number,[14],42.9 ± 4.2
same,relative cell number,"sgRNA knockout: sgKEAP1, 10 nM",79.3 ± 4.8
same,relative cell number,[15],83.5 ± 12
same,relative cell number,[16],81.43 ± 0.1
same,relative cell number,[17],39.2 ± 7.6
same,relative cell number,[18],91.5 ± 4
same,relative cell number,[19],95.3 ± 7
same,relative cell number,[20],86.9 ± 5.7
same,relative cell number,[21],32 ± 5.9
same,relative cell number,[22],100 ± 13
same,relative cell number,[23],114 ± 5.1
same,relative cell number,[24],84.6 ± 15
same,relative cell number,[25],49.2 ± 1.5
same,relative cell number,"sgRNA knockout: sgXBP1, 10 nM",97.4 ± 4.5
same,relative cell number,"sgRNA knockout: sgXBP1, 100 nM",98.8 ± 6.2
same,relative cell number,[26],78.9 ± 11
same,relative cell number,[27],44.1 ± 2.4
CN(C)/N=N/c1[nH]cnc1C(N)=O [Dacarbazine],relative cell number,"sgRNA knockout: sgATF3, 10 nM",97.2 ± 1.6
same,relative cell number,"sgRNA knockout: sgATF3, 100 nM",98 ± 0.66
same,relative cell number,[1],96.7 ± 6.1
same,relative cell number,[2],95.1 ± 26
same,relative cell number,"sgRNA knockout: sgATF4, 10 nM",106 ± 7.7
same,relative cell number,"sgRNA knockout: sgATF4, 100 nM",91.5 ± 11
same,relative cell number,[3],99 ± 12
same,relative cell number,[4],120 ± 42
same,relative cell number,"sgRNA knockout: sgATF6, 10 nM",85.97 ± 0.35
same,relative cell number,"sgRNA knockout: sgATF6, 100 nM",90 ± 12
same,relative cell number,[5],97.1 ± 32
same,relative cell number,[6],106 ± 36
same,relative cell number,"sgRNA knockout: sgATG7, 10 nM",99.5 ± 9.5
same,relative cell number,"sgRNA knockout: sgATG7, 100 nM",114 ± 0.66
same,relative cell number,[7],95.957 ± 0.058
same,relative cell number,[8],94.7 ± 24
same,relative cell number,"sgRNA knockout: sgERN1, 10 nM",94.4 ± 3.5
same,relative cell number,"sgRNA knockout: sgERN1, 100 nM",93.2 ± 9.2
same,relative cell number,[9],112 ± 4
same,relative cell number,[10],102 ± 32
same,relative cell number,"sgRNA knockout: sgHSF1, 10 nM",93.8 ± 23
same,relative cell number,"sgRNA knockout: sgHSF1, 100 nM",97.1 ± 4.4
same,relative cell number,[11],99.5 ± 13
same,relative cell number,[12],105 ± 26
same,relative cell number,"sgRNA knockout: sgHSF2, 10 nM",86.3 ± 16
same,relative cell number,"sgRNA knockout: sgHSF2, 100 nM",90.61 ± 0.21
same,relative cell number,[13],93.3 ± 1.5
same,relative cell number,[14],73.7 ± 3.6
same,relative cell number,"sgRNA knockout: sgKEAP1, 10 nM",116 ± 6.3
same,relative cell number,[15],91.9 ± 3.1
same,relative cell number,[16],102 ± 3.7
same,relative cell number,[17],98.5 ± 26
same,relative cell number,[18],98.3 ± 18
same,relative cell number,[19],114 ± 2.8
same,relative cell number,[20],101 ± 31
same,relative cell number,[21],90.8 ± 27
same,relative cell number,[22],76.9 ± 15
same,relative cell number,[23],88.9 ± 13
same,relative cell number,[24],104 ± 11
same,relative cell number,[25],107 ± 17
same,relative cell number,"sgRNA knockout: sgXBP1, 10 nM",104 ± 15
same,relative cell number,"sgRNA knockout: sgXBP1, 100 nM",90.4 ± 3.3
same,relative cell number,[26],109 ± 16
same,relative cell number,[27],96.5 ± 43
Cc1nc(Nc2ncc(C(=O)Nc3c(C)cccc3Cl)s2)cc(N2CCN(CCO)CC2)n1 [Dasatinib],relative cell number,"sgRNA knockout: sgATF3, 10 nM",101 ± 23
same,relative cell number,"sgRNA knockout: sgATF3, 100 nM",70.2 ± 13
same,relative cell number,[1],93 ± 7.5
same,relative cell number,[2],64.4 ± 10
same,relative cell number,"sgRNA knockout: sgATF4, 10 nM",87.9 ± 7.3
same,relative cell number,"sgRNA knockout: sgATF4, 100 nM",83 ± 11
same,relative cell number,[3],93.7 ± 4.5
same,relative cell number,[4],79.8 ± 10
same,relative cell number,"sgRNA knockout: sgATF6, 10 nM",100 ± 27
same,relative cell number,"sgRNA knockout: sgATF6, 100 nM",79.4 ± 2
same,relative cell number,[5],95.7 ± 11
same,relative cell number,[6],63.6 ± 16
same,relative cell number,"sgRNA knockout: sgATG7, 10 nM",90.3 ± 5.3
same,relative cell number,"sgRNA knockout: sgATG7, 100 nM",83.717 ± 0.083
same,relative cell number,[7],87.3 ± 9.3
same,relative cell number,[8],65.9 ± 3.5
same,relative cell number,"sgRNA knockout: sgERN1, 10 nM",103 ± 14
same,relative cell number,"sgRNA knockout: sgERN1, 100 nM",76.2 ± 22
same,relative cell number,[9],91.7 ± 13
same,relative cell number,[10],63.4 ± 10
same,relative cell number,"sgRNA knockout: sgHSF1, 10 nM",85.3 ± 3.8
same,relative cell number,"sgRNA knockout: sgHSF1, 100 nM",76.3 ± 19
same,relative cell number,[11],96.8 ± 6.2
same,relative cell number,[12],63.2 ± 18
same,relative cell number,"sgRNA knockout: sgHSF2, 10 nM",96 ± 15
same,relative cell number,"sgRNA knockout: sgHSF2, 100 nM",85.6 ± 22
same,relative cell number,[13],80.5 ± 4.5
same,relative cell number,[14],65.3 ± 0.66
same,relative cell number,"sgRNA knockout: sgKEAP1, 10 nM",88.3 ± 9.5
same,relative cell number,[15],79.3 ± 3.9
same,relative cell number,[16],91.5 ± 2.4
same,relative cell number,[17],63.9 ± 12
same,relative cell number,[18],84.3 ± 0.89
same,relative cell number,[19],73.6 ± 14
same,relative cell number,[20],107 ± 2.1
same,relative cell number,[21],63.8 ± 20
same,relative cell number,[22],108 ± 3.7
same,relative cell number,[23],99.9 ± 10
same,relative cell number,[24],93 ± 2.5
same,relative cell number,[25],64.3 ± 8.1
same,relative cell number,"sgRNA knockout: sgXBP1, 10 nM",94.1 ± 2.5
same,relative cell number,"sgRNA knockout: sgXBP1, 100 nM",80.3 ± 8.2
same,relative cell number,[26],88.4 ± 8.4
same,relative cell number,[27],64.7 ± 6.7

# An excerpt taken from the entries so far, for reference:
smiles,measurement,setting,value
C[C@@H](Oc1cc(-c2cnn(C3CCNCC3)c2)cnc1N)c1c(Cl)ccc(F)c1Cl [Crizotinib],relative cell number,[8],50.7 ± 7.7
same,relative cell number,"sgRNA knockout: sgERN1, 10 nM",92.5 ± 28

# 4 records picked at random from those above, as already listed:
smiles,measurement,setting,value
Cc1nc(Nc2ncc(C(=O)Nc3c(C)cccc3Cl)s2)cc(N2CCN(CCO)CC2)n1 [Dasatinib],relative cell number,"sgRNA knockout: sgATF3, 100 nM",70.2 ± 13
same,relative cell number,[25],64.3 ± 8.1
CN(C)/N=N/c1[nH]cnc1C(N)=O [Dacarbazine],relative cell number,[2],95.1 ± 26
same,relative cell number,"sgRNA knockout: sgERN1, 100 nM",93.2 ± 9.2
